Common to all, as to experiment: affinity purification with mass spectrometry
Assay [1] addresses T1, AUR1 (α Aurora kinase 1) with C-terminal GS^RHINO or GS^YELLOW TAP tag (A. thaliana) (UniProt Q9M077).
T1 sequence: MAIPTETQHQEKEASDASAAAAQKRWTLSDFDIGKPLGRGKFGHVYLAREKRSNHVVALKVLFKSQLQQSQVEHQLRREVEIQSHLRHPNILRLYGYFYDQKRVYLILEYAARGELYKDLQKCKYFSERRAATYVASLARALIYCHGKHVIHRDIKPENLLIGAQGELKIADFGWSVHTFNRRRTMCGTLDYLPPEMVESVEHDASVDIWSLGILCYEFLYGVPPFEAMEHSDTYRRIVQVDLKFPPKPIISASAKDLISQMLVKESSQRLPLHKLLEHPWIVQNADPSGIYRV

Sequences of proteins named here, by UniProt entry; tags and fusion partners are left off. A change or cut given only in a name is not applied to a line headed by its entry.
UniProt Q96321: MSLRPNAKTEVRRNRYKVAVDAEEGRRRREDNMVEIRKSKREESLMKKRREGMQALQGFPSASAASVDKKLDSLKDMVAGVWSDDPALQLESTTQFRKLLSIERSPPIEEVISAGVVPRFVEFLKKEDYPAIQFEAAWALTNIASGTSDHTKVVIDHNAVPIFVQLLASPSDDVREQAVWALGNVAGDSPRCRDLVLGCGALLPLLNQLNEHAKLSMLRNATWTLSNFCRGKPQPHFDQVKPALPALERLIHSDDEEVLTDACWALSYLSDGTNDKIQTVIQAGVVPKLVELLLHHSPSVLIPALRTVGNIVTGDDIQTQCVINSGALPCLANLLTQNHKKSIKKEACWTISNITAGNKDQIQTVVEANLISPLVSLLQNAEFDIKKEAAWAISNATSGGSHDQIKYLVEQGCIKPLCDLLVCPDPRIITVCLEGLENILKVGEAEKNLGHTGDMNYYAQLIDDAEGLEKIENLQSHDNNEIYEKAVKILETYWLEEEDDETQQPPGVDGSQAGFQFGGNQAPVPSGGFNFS
UniProt F4JL11: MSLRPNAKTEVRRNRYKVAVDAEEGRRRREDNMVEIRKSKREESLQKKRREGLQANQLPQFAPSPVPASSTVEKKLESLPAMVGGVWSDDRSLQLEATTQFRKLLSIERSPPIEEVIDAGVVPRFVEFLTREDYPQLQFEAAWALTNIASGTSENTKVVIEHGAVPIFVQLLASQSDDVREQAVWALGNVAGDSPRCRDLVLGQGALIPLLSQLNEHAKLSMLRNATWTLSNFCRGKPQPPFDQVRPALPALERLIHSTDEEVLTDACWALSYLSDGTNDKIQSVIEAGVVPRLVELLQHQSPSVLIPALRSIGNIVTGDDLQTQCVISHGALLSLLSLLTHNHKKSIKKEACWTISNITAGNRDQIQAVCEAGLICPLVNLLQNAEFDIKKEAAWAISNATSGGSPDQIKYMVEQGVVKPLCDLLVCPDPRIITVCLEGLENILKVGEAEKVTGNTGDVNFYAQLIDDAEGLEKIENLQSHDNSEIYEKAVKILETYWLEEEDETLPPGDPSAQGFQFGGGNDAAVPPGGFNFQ
UniProt O04294: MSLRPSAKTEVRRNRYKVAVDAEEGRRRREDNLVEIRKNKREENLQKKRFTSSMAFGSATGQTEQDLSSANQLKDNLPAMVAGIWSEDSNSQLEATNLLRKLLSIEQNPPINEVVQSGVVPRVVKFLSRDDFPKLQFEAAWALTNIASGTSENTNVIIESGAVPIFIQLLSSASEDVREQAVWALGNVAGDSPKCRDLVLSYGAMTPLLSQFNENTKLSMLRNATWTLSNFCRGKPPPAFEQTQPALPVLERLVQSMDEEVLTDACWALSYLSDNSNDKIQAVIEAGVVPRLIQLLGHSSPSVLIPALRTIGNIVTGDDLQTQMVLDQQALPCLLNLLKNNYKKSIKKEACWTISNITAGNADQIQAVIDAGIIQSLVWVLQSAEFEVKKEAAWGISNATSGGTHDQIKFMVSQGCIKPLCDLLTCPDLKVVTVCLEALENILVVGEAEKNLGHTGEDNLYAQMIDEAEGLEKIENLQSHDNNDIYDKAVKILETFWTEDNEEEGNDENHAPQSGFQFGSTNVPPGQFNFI
UniProt O80480: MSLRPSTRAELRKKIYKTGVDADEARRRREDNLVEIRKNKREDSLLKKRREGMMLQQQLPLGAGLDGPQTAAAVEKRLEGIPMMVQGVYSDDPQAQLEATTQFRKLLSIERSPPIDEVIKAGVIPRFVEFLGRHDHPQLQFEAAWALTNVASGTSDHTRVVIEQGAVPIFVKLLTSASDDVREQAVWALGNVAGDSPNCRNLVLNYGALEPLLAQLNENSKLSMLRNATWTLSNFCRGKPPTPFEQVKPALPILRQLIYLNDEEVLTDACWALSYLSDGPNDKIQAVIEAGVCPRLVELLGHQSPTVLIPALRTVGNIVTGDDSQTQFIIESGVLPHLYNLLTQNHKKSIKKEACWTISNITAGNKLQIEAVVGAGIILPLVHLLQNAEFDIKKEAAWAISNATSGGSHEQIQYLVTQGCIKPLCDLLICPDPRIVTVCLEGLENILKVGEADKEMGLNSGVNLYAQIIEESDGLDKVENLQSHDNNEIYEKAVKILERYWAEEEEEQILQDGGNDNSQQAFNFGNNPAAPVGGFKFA
UniProt F4JPV4: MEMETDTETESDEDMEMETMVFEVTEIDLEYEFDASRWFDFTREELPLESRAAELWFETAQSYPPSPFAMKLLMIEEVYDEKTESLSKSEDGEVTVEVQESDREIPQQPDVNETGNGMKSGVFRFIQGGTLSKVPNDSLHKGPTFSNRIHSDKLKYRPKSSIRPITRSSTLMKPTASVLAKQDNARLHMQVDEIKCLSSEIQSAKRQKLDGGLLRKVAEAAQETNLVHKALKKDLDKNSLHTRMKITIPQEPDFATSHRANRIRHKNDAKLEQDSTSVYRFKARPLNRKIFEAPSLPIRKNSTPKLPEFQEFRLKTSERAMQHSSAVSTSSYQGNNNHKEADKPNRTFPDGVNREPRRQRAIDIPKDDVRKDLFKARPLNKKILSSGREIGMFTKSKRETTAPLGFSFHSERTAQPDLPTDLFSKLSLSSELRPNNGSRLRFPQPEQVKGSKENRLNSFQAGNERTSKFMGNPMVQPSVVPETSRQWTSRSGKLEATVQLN

In assay [2] the target is T2, AUR1 (α Aurora kinase 1) with GS^TEV TAP tag (A. thaliana) (UniProt Q9M077).
T2 sequence: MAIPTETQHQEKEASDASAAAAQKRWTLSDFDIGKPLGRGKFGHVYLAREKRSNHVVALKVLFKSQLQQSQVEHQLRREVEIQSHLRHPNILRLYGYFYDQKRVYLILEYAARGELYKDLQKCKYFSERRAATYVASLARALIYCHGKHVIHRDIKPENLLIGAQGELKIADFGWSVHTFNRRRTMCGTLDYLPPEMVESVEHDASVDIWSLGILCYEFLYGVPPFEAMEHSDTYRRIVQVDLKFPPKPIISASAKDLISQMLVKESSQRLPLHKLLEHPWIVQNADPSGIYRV

Assay [3] addresses T3, AUR2 (α Aurora kinase 2) with GS^TEV TAP tag (A. thaliana) (UniProt Q683C9).
T3 sequence: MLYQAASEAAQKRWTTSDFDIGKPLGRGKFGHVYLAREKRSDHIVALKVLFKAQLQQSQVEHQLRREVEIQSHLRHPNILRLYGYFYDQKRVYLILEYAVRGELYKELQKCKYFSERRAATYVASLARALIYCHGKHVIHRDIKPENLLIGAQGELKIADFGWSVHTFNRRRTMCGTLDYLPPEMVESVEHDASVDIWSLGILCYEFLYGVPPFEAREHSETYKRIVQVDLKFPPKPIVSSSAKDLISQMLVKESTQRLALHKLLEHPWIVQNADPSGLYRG

In assay [4] the target is T1, AUR1 (α Aurora kinase 1) with C-terminal GS^RHINO or GS^YELLOW TAP tag (A. thaliana). This is another data set of the same source.

Results on eleven molecules are retold here after doi:10.1101/431791.

Read-outs that look alike come from different tables or passages of the source. These are yes or no findings as the source states them, for the method shown. In cells and extracts the contact can be indirect. These calls come from enrichment with a bait or labelling near it, and not all partners need be listed. Where a sequence is shown, tags or fusion partners need not be part of it.

“IMPA1 (α importin 1) (from UniProt Q96321 1-532)”: the binding entry in assay [1], in assay [2] and in assay [3] was “binds” throughout.

Regarding IMPA2 (from UniProt F4JL11 1-535), the binding result in assay [1], in assay [2] and in assay [3] was “binds” each time.

For IMPA3 (from UniProt O04294 1-531), the binding result in assay [1] was “binds”.

Regarding IMPA4 (from UniProt O80480 1-538), the binding entry in assay [1] is “binds”.

For the molecule KPNB2 (karyopherin subunit beta 2), in assay [1], the binding result is listed as “binds”.

With KPNB3 (karyopherin subunit beta 3), in assay [1], the binding entry is “binds”.

For TPXL2 (TPX-Like2) (from UniProt F4JPV4), the binding entry in assay [1], in assay [2] and in assay [3] was “binds” in each case.

For the molecule TPXL3 (TPX-Like3), the binding result in assay [1], in assay [2] and in assay [3] was “binds” throughout.

B1: IMPA6 (protein, UniProt Q9FWY7 1-538)
chain: MSYKPSAKTEVRRNRYKVSVDADEGRRRREDNMVEIRKNKREENLQKKRREGFNPSMASQPGQDFSSSLPTETRLENIQQMIAGVMSEDRDLQLEATASFRRLLSIERNPPINEVVQSGVVPHIVQFLSRDDFTQLQFEAAWALTNIASGTSENTRVIIDSGAVPLFVKLLSSASEEVREQAVWALGNVAGDSPKCRDHVLSCEAMMSLLAQFHEHSKLSMLRNATWTLSNFCRGKPQPAFEQTKAALPALERLLHSTDEEVLTDASWALSYLSDGTNEKIQTVIDAGVIPRLVQLLAHPSPSVLIPALRTIGNIVTGDDIQTQAVISSQALPGLLNLLKNTYKKSIKKEACWTISNITAGNTSQIQEVFQAGIIRPLINLLEIGEFEIKKEAVWAISNATSGGNHDQIKFLVSQGCIRPLCDLLPCPDPRVVTVTLEGLENILKVGEAEKNLGNTGNDNLYAQMIEDADGLDKIENLQSHDNNEIYEKAVKILESYWAADDEEEDIGGVDAPENVQSSGFQFGNQSGNAPTGGFNFG
On to B1, for which the binding result in assay [4] is recorded as “binds”.

B2: TPX2 (protein, UniProt F4I2H7 1-790)
chain: MEATAEESVSTLVTTMVDETYEFLAPRWFDFVNGETEDESRRAELWFQSALSCAPSPSVPRIKARRSFKVEAMCNFNEAEEETLKDKEPLEPVVPIVSLQSQPSQAKKAEVAPSKASTVKPSRISSKDAEVNNKTVDASDPTTEPIEDKENIAPACTPKPPMQFSLGAKSVDLKKQQTARKIASLLKNPSTLRPKNQSQAKGSHQKSVKGETNLNNIASTTNLIQENQAIKRQKLDDGKSRQILNPKPATLLHKTRNGLVNTGFNLCPSVTKHTPKENRKVYVREQIAPFVSTAELMKKFQTSTRDLFVQNRPKLTLTRPKEPEFVTSQRARPLRVKSSAELEEEMLAKIPKFKARPVNKKILAAPALPAPQRSTPHLPEFQEFHLQTMARANQHAETSSIASTEVSKQHNDQKHHLTEPKSPVLQTMLRARPTIAKTTAELEQEELEKAPKFKAKPLNKKIFESKGEMGIFCNTKKHITIPQEFHFATDERISRPESVLDIFDKLSLNSESCHEKPLPRNTAPNPFNLKTEERGAEKEKKFYMELMYKKLGDVKARVPKANPYPYTTDYPVVPPKPEPKQCTQPEPFQLESLVRHEEEMRREREERRRMETEEAQKRLFKAQPVIKEDPIPVPEKVRMPLTEIQEFNLHVEHRAVERADFDHKIKEKENQYKRYREESEAAKMVEEERALKQMRKTMVPHARPVPNFNKPFLPQKSNKGTTKAKSPNLRVIKRTERRTMMARPTISAATSASAVHCLMYPGSSFNKLKKKTVLTNIVHCLMYPDSSLLN
In the case of B2, in assay [4], the binding result is reported as “binds”.

B3: KPNB1 (karyopherin subunit beta 1) (protein, UniProt Q9FJD4 1-870)
chain: MAMEVTQLLINAQSIDGTVRKHAEESLKQFQEQNLAGFLLSLAGELANDEKPVDSRKLAGLVLKNALDAKEQHRKYELVQRWLALDMSTKSQIRAFLLKTLSAPVPDVRSTASQVIAKVAGIELPQKQWPELIVSLLSNIHQLPAHVKQATLETLGYLCEEVSPDVVEQEHVNKILTAVVQGMNAAEGNTDVRLAATRALYMALGFAQANFNNDMERDYIMRVVCEATLSPEVKIRQAAFECLVSIASTYYEKLAHYMQDIFNITAKAVREDDESVALQAIEFWSSICDEEIDILEEYGGEFAGDSDVPCFYFTKQALPGLVPLLLETLLKQEEDQDLDEGAWNIAMAGGTCLGLVARAVGDDIVPHVMPFIEEKISKPDWREREAATYAFGSILEGPSADKLMAIVNAALTFMLNALTNDPSNHVKDTTAWTLGRIFEFLHGSTIETPIINQANCQQIITVLIQSMNDAPNVAEKACGALYFLAQGYEDIGPSSPLTPFFQEIIKSLLAVAHREDATESRLRTAAYEALNEVVRCSTDETSTMVLQLVPVIMMELHNTLEGEKLSLDEREKQNELQGLLCGCLQVIIQKLGSEPTKSKFMEYADQMMGLFLRVFGCRSATAHEEAMLAIGALAYAAGPNFAKYMPEFYKYLEMGLQNFEEYQVCAVTVGVVGDVCRALEDKILPYCDGIMTQLLKDLSSNQLHRSVKPPIFSCFGDIALAIGEDFDKYWRYSMPMLQSAAELSAHSAGADDEMTEYTNSLRNGILEAYSGIFQGFKNSAKTQLLIPFAPHILQFLDSIYMEKDMDEVVMKTAIGVLGDLADTLGSHVGGLIQQSVSSKEFLNECLSSEDHTIKEAAEWAKHAITRAISV
Turning to B3, the binding result in assay [4] was “binds”.
